Test results reported in the supplement of paper PMC12067093, “Discovery and optimisation of a covalent ligand for TRIM25 and its application to targeted protein ubiquitination” (Chemical Science, 2025).
Some of the results follow.

Chains of the proteins cited; added tags and fusions are not shown. Lines headed by an entry give the natural chain unless they say otherwise; changes in a name come on top.
UniProt Q8TCU6, whole entry, looked up: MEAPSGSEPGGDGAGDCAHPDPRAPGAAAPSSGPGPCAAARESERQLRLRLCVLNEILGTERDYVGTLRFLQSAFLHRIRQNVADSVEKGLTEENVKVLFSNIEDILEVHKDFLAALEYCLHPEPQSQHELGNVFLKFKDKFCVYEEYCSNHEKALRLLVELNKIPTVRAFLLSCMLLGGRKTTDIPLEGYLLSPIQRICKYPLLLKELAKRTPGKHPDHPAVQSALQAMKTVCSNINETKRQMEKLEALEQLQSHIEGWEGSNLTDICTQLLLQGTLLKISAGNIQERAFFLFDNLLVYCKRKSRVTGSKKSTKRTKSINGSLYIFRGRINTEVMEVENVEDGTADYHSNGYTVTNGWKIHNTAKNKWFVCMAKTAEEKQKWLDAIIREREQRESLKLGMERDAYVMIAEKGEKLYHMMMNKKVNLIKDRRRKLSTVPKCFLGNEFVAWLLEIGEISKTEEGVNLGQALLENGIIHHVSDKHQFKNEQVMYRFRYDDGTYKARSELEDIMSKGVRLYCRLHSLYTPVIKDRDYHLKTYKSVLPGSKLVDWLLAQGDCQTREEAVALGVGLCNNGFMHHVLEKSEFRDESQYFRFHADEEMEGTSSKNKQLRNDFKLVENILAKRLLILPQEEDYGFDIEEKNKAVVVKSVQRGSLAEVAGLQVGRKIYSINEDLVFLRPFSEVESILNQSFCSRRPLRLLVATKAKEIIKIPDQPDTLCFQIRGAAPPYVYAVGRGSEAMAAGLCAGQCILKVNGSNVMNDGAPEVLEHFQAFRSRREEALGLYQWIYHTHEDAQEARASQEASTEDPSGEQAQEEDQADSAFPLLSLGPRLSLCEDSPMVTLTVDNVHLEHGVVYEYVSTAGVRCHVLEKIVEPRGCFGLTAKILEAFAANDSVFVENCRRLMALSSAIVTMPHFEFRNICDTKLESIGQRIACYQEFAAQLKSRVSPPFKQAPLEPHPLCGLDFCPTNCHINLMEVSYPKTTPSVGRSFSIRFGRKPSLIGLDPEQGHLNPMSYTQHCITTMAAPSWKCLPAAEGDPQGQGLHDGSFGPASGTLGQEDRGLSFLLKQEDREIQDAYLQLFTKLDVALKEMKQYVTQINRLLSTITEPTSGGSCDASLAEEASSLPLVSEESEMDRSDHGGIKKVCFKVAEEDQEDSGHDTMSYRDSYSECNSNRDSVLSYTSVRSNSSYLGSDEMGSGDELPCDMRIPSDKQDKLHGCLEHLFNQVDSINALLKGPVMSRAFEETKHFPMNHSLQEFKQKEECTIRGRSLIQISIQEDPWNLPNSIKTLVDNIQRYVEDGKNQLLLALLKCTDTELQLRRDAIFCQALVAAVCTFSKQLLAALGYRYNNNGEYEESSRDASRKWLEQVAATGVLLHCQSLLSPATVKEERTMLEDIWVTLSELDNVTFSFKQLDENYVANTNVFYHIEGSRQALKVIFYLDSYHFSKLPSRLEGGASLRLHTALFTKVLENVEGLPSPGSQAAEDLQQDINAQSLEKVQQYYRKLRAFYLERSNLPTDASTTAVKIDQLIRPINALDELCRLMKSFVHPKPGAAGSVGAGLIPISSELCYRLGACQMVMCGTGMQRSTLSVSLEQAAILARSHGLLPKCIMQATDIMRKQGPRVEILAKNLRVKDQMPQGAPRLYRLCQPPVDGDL
UniProt Q6NYC8: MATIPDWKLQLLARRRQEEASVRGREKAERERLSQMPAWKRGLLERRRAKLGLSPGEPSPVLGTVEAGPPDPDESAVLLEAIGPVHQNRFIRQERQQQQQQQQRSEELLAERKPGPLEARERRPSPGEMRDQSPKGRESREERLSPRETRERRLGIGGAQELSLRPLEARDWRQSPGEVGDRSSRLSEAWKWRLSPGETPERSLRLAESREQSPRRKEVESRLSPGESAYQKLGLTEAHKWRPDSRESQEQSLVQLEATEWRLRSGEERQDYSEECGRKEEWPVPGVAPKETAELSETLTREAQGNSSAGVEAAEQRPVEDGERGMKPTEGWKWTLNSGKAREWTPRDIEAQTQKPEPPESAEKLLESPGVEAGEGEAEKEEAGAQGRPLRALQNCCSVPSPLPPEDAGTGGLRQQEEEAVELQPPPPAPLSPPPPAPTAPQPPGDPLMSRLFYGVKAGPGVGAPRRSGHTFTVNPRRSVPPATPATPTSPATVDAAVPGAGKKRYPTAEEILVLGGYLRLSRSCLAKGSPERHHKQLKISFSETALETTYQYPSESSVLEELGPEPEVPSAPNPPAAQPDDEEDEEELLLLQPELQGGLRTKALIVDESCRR
UniProt O43314: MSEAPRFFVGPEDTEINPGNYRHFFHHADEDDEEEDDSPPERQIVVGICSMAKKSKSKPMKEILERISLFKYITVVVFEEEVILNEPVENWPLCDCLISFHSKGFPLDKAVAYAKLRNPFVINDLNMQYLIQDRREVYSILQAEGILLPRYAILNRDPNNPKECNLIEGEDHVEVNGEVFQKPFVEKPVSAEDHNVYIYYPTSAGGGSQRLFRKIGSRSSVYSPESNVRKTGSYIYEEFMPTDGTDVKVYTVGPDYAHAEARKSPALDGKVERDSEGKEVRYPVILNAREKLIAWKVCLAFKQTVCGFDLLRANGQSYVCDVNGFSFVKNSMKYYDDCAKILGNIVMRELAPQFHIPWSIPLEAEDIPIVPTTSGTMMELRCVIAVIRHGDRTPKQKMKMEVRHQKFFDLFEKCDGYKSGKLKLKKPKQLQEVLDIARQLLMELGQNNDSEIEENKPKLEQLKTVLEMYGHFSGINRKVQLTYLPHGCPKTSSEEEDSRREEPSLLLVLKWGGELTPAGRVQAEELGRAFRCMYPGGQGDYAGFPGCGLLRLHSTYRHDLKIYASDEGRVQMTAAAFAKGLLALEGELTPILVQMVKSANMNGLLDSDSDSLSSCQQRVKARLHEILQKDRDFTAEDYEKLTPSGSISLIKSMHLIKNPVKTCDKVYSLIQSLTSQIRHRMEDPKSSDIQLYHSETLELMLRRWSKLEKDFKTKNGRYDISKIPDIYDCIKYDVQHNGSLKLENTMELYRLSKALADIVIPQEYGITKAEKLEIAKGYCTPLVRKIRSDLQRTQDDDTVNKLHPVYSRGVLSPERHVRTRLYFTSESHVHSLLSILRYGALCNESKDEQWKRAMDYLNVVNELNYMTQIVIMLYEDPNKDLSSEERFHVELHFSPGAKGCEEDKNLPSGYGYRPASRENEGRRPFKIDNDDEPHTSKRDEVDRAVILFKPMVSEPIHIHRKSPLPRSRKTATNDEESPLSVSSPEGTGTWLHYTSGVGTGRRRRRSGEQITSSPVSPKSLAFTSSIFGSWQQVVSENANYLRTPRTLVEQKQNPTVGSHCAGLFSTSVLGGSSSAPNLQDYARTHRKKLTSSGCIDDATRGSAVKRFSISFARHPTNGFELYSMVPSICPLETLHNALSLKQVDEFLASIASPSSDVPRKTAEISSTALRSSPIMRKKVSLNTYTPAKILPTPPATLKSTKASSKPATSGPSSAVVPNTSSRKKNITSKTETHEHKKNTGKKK
UniProt P30153, whole entry, looked up: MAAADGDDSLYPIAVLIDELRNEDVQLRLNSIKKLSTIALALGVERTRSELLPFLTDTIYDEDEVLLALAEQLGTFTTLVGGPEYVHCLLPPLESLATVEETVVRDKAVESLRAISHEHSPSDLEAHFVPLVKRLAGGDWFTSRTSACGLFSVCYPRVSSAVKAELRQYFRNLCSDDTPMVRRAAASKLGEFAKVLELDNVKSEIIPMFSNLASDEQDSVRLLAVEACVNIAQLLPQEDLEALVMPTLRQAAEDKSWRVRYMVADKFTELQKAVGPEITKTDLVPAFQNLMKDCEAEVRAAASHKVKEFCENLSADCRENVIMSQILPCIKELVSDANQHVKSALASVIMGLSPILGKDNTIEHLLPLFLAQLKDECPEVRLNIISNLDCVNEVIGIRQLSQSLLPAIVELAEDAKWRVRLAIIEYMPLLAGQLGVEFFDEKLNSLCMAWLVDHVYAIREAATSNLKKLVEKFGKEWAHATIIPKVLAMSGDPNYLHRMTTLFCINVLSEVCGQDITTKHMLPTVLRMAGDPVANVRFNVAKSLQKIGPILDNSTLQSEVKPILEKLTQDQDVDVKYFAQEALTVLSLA
UniProt O75688: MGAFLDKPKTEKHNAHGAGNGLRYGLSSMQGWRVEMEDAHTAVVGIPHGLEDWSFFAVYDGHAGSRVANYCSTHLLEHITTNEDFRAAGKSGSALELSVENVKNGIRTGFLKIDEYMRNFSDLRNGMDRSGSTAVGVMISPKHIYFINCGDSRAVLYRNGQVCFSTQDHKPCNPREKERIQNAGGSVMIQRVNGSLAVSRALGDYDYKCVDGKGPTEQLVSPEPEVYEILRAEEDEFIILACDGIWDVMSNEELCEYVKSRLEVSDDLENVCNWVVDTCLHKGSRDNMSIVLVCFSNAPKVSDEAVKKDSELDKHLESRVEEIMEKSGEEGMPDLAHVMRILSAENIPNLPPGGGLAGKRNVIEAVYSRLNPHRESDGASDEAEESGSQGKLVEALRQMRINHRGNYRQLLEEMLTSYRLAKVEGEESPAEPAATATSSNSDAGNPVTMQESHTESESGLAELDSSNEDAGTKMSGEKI
UniProt O75170: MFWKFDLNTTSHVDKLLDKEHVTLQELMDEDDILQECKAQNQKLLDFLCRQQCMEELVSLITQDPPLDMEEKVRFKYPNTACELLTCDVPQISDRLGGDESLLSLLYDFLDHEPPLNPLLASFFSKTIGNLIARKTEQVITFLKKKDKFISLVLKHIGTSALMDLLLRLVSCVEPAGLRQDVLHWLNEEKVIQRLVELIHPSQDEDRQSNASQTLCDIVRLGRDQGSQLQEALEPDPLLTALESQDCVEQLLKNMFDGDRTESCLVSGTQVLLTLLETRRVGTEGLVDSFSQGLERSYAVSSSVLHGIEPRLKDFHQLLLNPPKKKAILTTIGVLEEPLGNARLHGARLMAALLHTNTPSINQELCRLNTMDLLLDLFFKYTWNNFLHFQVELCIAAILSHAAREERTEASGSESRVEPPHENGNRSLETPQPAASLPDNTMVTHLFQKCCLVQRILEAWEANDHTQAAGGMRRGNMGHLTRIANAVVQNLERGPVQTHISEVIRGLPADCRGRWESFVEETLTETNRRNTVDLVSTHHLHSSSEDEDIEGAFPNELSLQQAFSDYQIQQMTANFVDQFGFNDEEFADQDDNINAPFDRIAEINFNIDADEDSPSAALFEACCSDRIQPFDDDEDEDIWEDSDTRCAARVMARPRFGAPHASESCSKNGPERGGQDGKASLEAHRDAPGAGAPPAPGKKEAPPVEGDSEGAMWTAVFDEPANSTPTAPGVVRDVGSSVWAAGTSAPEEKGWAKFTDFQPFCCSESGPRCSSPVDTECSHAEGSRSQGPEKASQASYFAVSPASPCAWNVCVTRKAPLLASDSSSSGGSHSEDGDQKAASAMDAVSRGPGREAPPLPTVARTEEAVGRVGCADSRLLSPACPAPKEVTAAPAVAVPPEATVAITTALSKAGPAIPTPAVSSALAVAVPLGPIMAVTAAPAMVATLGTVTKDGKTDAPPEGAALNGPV
UniProt P36873, whole entry, looked up: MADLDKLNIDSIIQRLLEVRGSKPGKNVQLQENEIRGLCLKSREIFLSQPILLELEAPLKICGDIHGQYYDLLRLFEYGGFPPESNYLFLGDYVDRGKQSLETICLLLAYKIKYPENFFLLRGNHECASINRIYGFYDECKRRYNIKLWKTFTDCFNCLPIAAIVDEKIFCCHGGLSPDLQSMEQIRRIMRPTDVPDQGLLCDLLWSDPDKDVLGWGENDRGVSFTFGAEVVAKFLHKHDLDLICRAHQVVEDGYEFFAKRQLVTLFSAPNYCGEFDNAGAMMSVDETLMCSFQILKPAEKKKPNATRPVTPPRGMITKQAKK
UniProt Q13162: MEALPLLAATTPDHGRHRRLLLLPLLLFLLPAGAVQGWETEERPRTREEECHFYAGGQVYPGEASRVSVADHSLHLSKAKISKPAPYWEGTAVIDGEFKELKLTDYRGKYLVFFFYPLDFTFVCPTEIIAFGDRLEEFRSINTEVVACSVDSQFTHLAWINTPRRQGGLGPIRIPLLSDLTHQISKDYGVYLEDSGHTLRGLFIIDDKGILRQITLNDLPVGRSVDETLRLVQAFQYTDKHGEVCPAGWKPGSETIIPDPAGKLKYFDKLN

Compound: Cc1cc(ccc1-c1ccccc1)C(=O)N1CCCN(CC1)C(=O)CCl [compound 10]
Assay: probe-labelled cysteine peptide fold change vs DMSO (competition) (log2 fold change); higher = less target engagement (more negative = stronger competition)
Conditions: THP-1, incubation time: 4 h
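Note: competitive profiling in live THP-1 cells: cysteine peptides tagged with an iodoacetamide desthiobiotin (IA-DTB) probe, intensity after compound treatment relative to DMSO-treated cells.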

| Target | probe-labelled cysteine peptide fold change (10 µM) | probe-labelled cysteine peptide fold change (50 µM) |
| --- | --- | --- |
| PREP_P48147_343_VLVPEHEKDVLEWIACVR (UniProt P48147) | -0.124 | -0.594 |
| PPP3CB_P16298_477_ICSFEEAK (UniProt P16298) | -0.0998 | -0.422 |
| PREX1_Q8TCU6_1314_CTDTELQLR (UniProt Q8TCU6) | 0.174 | 0.186 |
| PPP1R18_Q6NYC8_611_ALIVDESCR (UniProt Q6NYC8) | -0.365 | 0.0294 |
| PPIP5K2_O43314_164_ECNLIEGEDHVEVNGEVFQK (UniProt O43314) | 0.0269 | 0.119 |
| PPP2R1A_P30153_504_MTTLFCINVLSEVCGQDITTK (UniProt P30153) | -0.0539 | 0.11 |
| PPM1B_O75688_172_NGQVCFSTQDHKPCNPR (UniProt O75688) | -0.201 | -0.478 |
| PPP3CA_Q08209_88_NLLDIDAPVTVCGDIHGQFFDLMK (UniProt Q08209) | -0.0736 | 0.0327 |
| PPP6R2_O75170_665_FGAPHASESCSK (UniProt O75170) | -0.151 | -0.338 |
| PPP1R8_Q12972_16_AAAANSGSSLPLFDCPTWAGKPPPGLHLDVVK (UniProt Q12972) | 0.0744 | 0.366 |
| PPP1CC_P36873_245_FLHKHDLDLICR (UniProt P36873) | -0.206 | -0.72 |
| PPIP5K2_O43314_338_YYDDCAK (UniProt O43314) | 0.242 | 0.217 |
| PPP6R1_Q9UPN7_37_FDLHTSSHLDTLLEREDLSLPELLDEEDVLQECK (UniProt Q9UPN7) | -0.0534 | -0.305 |
| PRDX4_Q13162_51_TREEECHFYAGGQVYPGEASR (UniProt Q13162) | -0.132 | 0.0047 |

Some of the entries so far, with each value named.
PPP6R2_O75170_665_FGAPHASESCSK (UniProt O75170)
  probe-labelled cysteine peptide fold change (10 µM): -0.151; probe-labelled cysteine peptide fold change (50 µM): -0.338
PPP1CC_P36873_245_FLHKHDLDLICR (UniProt P36873)
  probe-labelled cysteine peptide fold change (10 µM): -0.206; probe-labelled cysteine peptide fold change (50 µM): -0.72
